Assay results: PMC8384837
Positions count from the first letter of the chain named. This is one part of the list. For part of these data: At the low end of the ranking the order means little.

How the values were obtained:
Settings in all cases: yeast three-hybrid, YBZ-1, SC-Leu-His + 0.5 mM 3-AT, 4 days
[1] = target: T1, PUM1 PUF domain R1-QFR R2-VFQ R7-NPG S863Q + R864F + Q867R + N899V + Y900F + S1079N + N1080P + E1083G (UniProt Q14671)
T1 sequence: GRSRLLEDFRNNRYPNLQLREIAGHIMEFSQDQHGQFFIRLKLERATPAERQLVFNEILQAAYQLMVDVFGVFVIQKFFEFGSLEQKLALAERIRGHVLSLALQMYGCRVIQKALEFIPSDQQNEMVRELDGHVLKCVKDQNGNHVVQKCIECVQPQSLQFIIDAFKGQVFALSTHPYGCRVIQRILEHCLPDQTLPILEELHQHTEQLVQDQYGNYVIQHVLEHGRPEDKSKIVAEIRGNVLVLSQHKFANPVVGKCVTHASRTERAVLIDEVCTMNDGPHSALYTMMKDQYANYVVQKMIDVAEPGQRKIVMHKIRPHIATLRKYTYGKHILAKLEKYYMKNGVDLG

[2] = target: T2, PUM1 PUF domain R3-AAE C935A + R936A + Q939E (UniProt Q14671)
T2 sequence: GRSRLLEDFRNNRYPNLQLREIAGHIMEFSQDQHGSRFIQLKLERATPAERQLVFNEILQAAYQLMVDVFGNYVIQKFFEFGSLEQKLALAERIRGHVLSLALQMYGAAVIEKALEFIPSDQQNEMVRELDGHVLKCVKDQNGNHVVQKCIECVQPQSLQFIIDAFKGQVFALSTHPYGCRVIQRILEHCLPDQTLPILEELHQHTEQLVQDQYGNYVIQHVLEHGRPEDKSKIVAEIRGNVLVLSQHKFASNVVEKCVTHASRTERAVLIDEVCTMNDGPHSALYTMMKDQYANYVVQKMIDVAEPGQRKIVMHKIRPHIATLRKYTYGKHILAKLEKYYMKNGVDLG

[3] = target: T3, PUM1 PUF domain R3-ACR C935A + R936C + Q939R (UniProt Q14671)
T3 sequence: T2 sequence with A109C, E112R

[4] = target: T4, PUM1 PUF domain R3-AIR C935A + R936I + Q939R (UniProt Q14671)
T4 sequence: T2 sequence with A109I, E112R

[5] = target: T5, PUM1 PUF domain R3-APA C935A + R936P + Q939A (UniProt Q14671)
T5 sequence: T2 sequence with A109P, E112A

[6] = target: T6, PUM1 PUF domain R3-APF C935A + R936P + Q939F (UniProt Q14671)
T6 sequence: T2 sequence with A109P, E112F

[7] = target: T7, PUM1 PUF domain R3-APL C935A + R936P + Q939L (UniProt Q14671)
T7 sequence: T2 sequence with A109P, E112L

[8] = target: T8, PUM1 PUF domain R3-APR C935A + R936P + Q939R (UniProt Q14671)
T8 sequence: T2 sequence with A109P, E112R

[9] = target: T9, PUM1 PUF domain R3-APV C935A + R936P + Q939V (UniProt Q14671)
T9 sequence: T2 sequence with A109P, E112V

[10] = target: T10, PUM1 PUF domain R3-ARA C935A + Q939A (UniProt Q14671)
T10 sequence: T2 sequence with A109R, E112A

[11] = target: T11, PUM1 PUF domain R3-ARD C935A + Q939D (UniProt Q14671)
T11 sequence: T2 sequence with A109R, E112D

[12] = target: T12, PUM1 PUF domain R3-ARG C935A + Q939G (UniProt Q14671)
T12 sequence: T2 sequence with A109R, E112G

[13] = target: T13, PUM1 PUF domain R3-ARL C935A + Q939L (UniProt Q14671)
T13 sequence: T2 sequence with A109R, E112L

[14] = target: T14, PUM1 PUF domain R3-ARP C935A + Q939P (Homo sapiens) (UniProt Q14671)
T14 sequence: T2 sequence with A109R, E112P

[15] = target: T15, PUM1 PUF domain R3-ARR C935A + Q939R (Homo sapiens) (UniProt Q14671)
T15 sequence: T2 sequence with A109R, E112R

[16] = target: T16, PUM1 PUF domain R3-ARS C935A + Q939S (UniProt Q14671)
T16 sequence: T2 sequence with A109R, E112S

[17] = target: T17, PUM1 PUF domain R3-ART C935A + Q939T (UniProt Q14671)
T17 sequence: T2 sequence with A109R, E112T

[18] = target: T18, PUM1 PUF domain R3-ARV C935A + Q939V (UniProt Q14671)
T18 sequence: T2 sequence with A109R, E112V

[19] = target: T19, PUM1 PUF domain R3-ASE C935A + R936S + Q939E (UniProt Q14671)
T19 sequence: T2 sequence with A109S

[20] = target: T20, PUM1 PUF domain R3-ASY C935A + R936S + Q939Y (UniProt Q14671)
T20 sequence: T2 sequence with A109S, E112Y

[21] = target: T21, PUM1 PUF domain R3-ATE C935A + R936T + Q939E (UniProt Q14671)
T21 sequence: T2 sequence with A109T

[22] = target: T22, PUM1 PUF domain R3-AWG C935A + R936W + Q939G (UniProt Q14671)
T22 sequence: T2 sequence with A109W, E112G

[23] = target: T23, PUM1 PUF domain R3-CHG R936H + Q939G (UniProt Q14671)
T23 sequence: T2 sequence with A108C, A109H, E112G

[24] = target: T24, PUM1 PUF domain R3-CNE R936N + Q939E (UniProt Q14671)
T24 sequence: T2 sequence with A108C, A109N

[25] = target: T25, PUM1 PUF domain R3-CPG R936P + Q939G (UniProt Q14671)
T25 sequence: T2 sequence with A108C, A109P, E112G

[26] = target: T26, PUM1 PUF domain R3-DAK C935D + R936A + Q939K (UniProt Q14671)
T26 sequence: T2 sequence with A108D, E112K

[27] = target: T27, PUM1 PUF domain R3-DFE C935D + R936F + Q939E (UniProt Q14671)
T27 sequence: T2 sequence with A108D, A109F

[28] = target: T28, PUM1 PUF domain R3-DFL C935D + R936F + Q939L (UniProt Q14671)
T28 sequence: T2 sequence with A108D, A109F, E112L

[29] = target: T29, PUM1 PUF domain R3-DFV C935D + R936F + Q939V (UniProt Q14671)
T29 sequence: T2 sequence with A108D, A109F, E112V

[30] = target: T30, PUM1 PUF domain R3-DHR C935D + R936H + Q939R (UniProt Q14671)
T30 sequence: T2 sequence with A108D, A109H, E112R

[31] = target: T31, PUM1 PUF domain R3-DRE C935D + Q939E (UniProt Q14671)
T31 sequence: T2 sequence with A108D, A109R

[32] = target: T32, PUM1 PUF domain R3-DRL C935D + Q939L (UniProt Q14671)
T32 sequence: T2 sequence with A108D, A109R, E112L

[33] = target: T33, PUM1 PUF domain R3-DWE C935D + R936W + Q939E (UniProt Q14671)
T33 sequence: T2 sequence with A108D, A109W

[34] = target: T34, PUM1 PUF domain R3-DWS C935D + R936W + Q939S (UniProt Q14671)
T34 sequence: T2 sequence with A108D, A109W, E112S

[35] = target: T35, PUM1 PUF domain R3-DYE C935D + R936Y + Q939E (UniProt Q14671)
T35 sequence: T2 sequence with A108D, A109Y

[36] = target: T36, PUM1 PUF domain R3-DYS C935D + R936Y + Q939S (UniProt Q14671)
T36 sequence: T2 sequence with A108D, A109Y, E112S

[37] = target: T37, PUM1 PUF domain R3-ERS C935E + Q939S (UniProt Q14671)
T37 sequence: T2 sequence with A108E, A109R, E112S

[38] = target: T38, PUM1 PUF domain R3-ESL C935E + R936S + Q939L (UniProt Q14671)
T38 sequence: T2 sequence with A108E, A109S, E112L

[39] = target: T39, PUM1 PUF domain R3-EWL C935E + R936W + Q939L (UniProt Q14671)
T39 sequence: T2 sequence with A108E, A109W, E112L

[40] = target: T40, PUM1 PUF domain R3-EWV C935E + R936W + Q939V (Homo sapiens) (UniProt Q14671)
T40 sequence: T2 sequence with A108E, A109W, E112V

[41] = target: T41, PUM1 PUF domain R3-EYE C935E + R936Y + Q939E (Homo sapiens) (UniProt Q14671)
T41 sequence: T2 sequence with A108E, A109Y

[42] = target: T42, PUM1 PUF domain R3-FCA C935F + R936C + Q939A (UniProt Q14671)
T42 sequence: T2 sequence with A108F, A109C, E112A

[43] = target: T43, PUM1 PUF domain R3-FCG C935F + R936C + Q939G (UniProt Q14671)
T43 sequence: T2 sequence with A108F, A109C, E112G

[44] = target: T44, PUM1 PUF domain R3-FFG C935F + R936F + Q939G (UniProt Q14671)
T44 sequence: T2 sequence with A108F, A109F, E112G

[45] = target: T45, PUM1 PUF domain R3-FFV C935F + R936F + Q939V (UniProt Q14671)
T45 sequence: T2 sequence with A108F, A109F, E112V

## GGCUAGAACUAGUGGAUCCCCCGGCGCCCGGCGGCUCGAGCCCGGGUAAGUGUAACUAGUCUGCAUGCCGCCGGGCGCCAUGCCUGCAGGUCGACUCUAGAAAACAUG
[1]
  binding signal (log2 enrichment (interaction score)): -5.45
[2]
  binding signal (log2 enrichment (interaction score)): < -7.64
[3]
  binding signal (log2 enrichment (interaction score)): -2.13
[4]
  binding signal (log2 enrichment (interaction score)): < -8.87
[5]
  binding signal (log2 enrichment (interaction score)): < -8.57
[6]
  binding signal (log2 enrichment (interaction score)): < -7.15
[7]
  binding signal (log2 enrichment (interaction score)): < -8.01
[8]
  binding signal (log2 enrichment (interaction score)): -4.19
[9]
  binding signal (log2 enrichment (interaction score)): < -7.65
[10]
  binding signal (log2 enrichment (interaction score)): -2.74
[11]
  binding signal (log2 enrichment (interaction score)): < -9.37
[12]
  binding signal (log2 enrichment (interaction score)): -2.58
[13]
  binding signal (log2 enrichment (interaction score)): -4.23
[14]
  binding signal (log2 enrichment (interaction score)): -1.81
[15]
  binding signal (log2 enrichment (interaction score)): 0.01
[16]
  binding signal (log2 enrichment (interaction score)): -2.77
[17]
  binding signal (log2 enrichment (interaction score)): < -7.11
[18]
  binding signal (log2 enrichment (interaction score)): -3
[19]
  binding signal (log2 enrichment (interaction score)): -3.09
[20]
  binding signal (log2 enrichment (interaction score)): < -7.47
[21]
  binding signal (log2 enrichment (interaction score)): < -7.14
[22]
  binding signal (log2 enrichment (interaction score)): < -8.31
[23]
  binding signal (log2 enrichment (interaction score)): < -6.44
[24]
  binding signal (log2 enrichment (interaction score)): < -8.02
[25]
  binding signal (log2 enrichment (interaction score)): -5.73
[26]
  binding signal (log2 enrichment (interaction score)): < -7.35
[27]
  binding signal (log2 enrichment (interaction score)): -4.08
[28]
  binding signal (log2 enrichment (interaction score)): < -8.48
[29]
  binding signal (log2 enrichment (interaction score)): < -7.98
[30]
  binding signal (log2 enrichment (interaction score)): -2.67
[31]
  binding signal (log2 enrichment (interaction score)): -4.1
[32]
  binding signal (log2 enrichment (interaction score)): < -9.25
[33]
  binding signal (log2 enrichment (interaction score)): -5.33
[34]
  binding signal (log2 enrichment (interaction score)): < -7.57
[35]
  binding signal (log2 enrichment (interaction score)): < -6.71
[36]
  binding signal (log2 enrichment (interaction score)): < -9.08
[37]
  binding signal (log2 enrichment (interaction score)): -8.12
[38]
  binding signal (log2 enrichment (interaction score)): < -6.81
[39]
  binding signal (log2 enrichment (interaction score)): < -9.2
[40]
  binding signal (log2 enrichment (interaction score)): -0.31
[41]
  binding signal (log2 enrichment (interaction score)): 0.56
[42]
  binding signal (log2 enrichment (interaction score)): < -8.54
[43]
  binding signal (log2 enrichment (interaction score)): -3.33
[44]
  binding signal (log2 enrichment (interaction score)): -3.91
[45]
  binding signal (log2 enrichment (interaction score)): -5.23
